Source: the supplement of paper PMC10849652
This is one part of the list.

The chains behind the UniProt entries cited, without tags or fusion partners. Where a name states a change or a piece, a line headed by the entry shows the natural chain unless it says otherwise.
UniProt Q9NS91, whole entry, looked up: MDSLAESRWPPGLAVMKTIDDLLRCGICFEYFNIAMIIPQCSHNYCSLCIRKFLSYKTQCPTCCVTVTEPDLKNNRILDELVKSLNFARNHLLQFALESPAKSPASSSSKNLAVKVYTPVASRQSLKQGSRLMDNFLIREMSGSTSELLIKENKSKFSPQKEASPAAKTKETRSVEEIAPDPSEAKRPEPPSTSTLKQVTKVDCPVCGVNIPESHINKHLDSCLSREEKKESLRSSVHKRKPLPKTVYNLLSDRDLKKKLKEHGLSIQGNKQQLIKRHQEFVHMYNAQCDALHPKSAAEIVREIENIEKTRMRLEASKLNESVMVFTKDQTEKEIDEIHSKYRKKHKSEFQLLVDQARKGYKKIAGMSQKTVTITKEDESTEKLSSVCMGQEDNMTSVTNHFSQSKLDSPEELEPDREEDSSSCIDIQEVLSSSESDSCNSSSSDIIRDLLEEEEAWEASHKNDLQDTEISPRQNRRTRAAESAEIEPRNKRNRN
UniProt Q9Y3T6: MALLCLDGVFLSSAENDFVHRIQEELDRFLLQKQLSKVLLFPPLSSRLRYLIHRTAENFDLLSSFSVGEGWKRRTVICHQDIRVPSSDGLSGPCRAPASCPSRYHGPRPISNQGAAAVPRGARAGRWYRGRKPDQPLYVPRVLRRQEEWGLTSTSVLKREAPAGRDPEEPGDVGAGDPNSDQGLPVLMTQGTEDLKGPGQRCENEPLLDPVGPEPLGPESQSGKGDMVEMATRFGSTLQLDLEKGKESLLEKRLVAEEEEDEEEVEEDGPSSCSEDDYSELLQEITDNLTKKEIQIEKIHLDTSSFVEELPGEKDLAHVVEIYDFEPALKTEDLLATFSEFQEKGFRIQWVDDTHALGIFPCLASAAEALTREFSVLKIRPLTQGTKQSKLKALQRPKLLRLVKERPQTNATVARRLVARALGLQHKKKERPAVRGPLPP
UniProt P61019: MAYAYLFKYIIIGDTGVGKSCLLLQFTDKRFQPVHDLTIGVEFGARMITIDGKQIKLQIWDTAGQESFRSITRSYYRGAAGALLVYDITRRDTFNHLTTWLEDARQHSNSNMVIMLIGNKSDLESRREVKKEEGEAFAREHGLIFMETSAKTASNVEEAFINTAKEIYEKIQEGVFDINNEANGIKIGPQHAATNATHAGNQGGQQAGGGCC
UniProt Q9UL25: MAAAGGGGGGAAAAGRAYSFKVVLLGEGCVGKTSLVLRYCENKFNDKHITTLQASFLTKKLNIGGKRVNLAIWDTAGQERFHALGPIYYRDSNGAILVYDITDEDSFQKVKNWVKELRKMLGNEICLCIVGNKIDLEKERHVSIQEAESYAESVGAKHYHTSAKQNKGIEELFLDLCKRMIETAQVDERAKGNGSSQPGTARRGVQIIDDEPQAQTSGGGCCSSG
UniProt P20336: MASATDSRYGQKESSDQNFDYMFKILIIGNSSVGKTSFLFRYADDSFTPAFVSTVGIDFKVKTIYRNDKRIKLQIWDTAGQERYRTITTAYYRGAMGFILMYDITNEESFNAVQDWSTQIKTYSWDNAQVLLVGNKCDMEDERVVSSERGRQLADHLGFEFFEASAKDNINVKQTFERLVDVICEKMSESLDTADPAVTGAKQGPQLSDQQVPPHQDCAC
UniProt Q9ULC3: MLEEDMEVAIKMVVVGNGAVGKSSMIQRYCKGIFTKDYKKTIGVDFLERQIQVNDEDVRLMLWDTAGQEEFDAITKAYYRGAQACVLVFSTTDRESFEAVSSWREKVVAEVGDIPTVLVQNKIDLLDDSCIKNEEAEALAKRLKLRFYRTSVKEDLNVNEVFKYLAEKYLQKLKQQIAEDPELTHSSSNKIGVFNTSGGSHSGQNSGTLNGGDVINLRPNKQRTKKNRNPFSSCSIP
UniProt P47224: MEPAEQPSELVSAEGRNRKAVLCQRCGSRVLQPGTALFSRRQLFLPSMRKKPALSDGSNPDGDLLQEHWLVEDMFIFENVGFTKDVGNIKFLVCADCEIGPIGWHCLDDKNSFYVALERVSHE
UniProt P49792, whole entry, looked up: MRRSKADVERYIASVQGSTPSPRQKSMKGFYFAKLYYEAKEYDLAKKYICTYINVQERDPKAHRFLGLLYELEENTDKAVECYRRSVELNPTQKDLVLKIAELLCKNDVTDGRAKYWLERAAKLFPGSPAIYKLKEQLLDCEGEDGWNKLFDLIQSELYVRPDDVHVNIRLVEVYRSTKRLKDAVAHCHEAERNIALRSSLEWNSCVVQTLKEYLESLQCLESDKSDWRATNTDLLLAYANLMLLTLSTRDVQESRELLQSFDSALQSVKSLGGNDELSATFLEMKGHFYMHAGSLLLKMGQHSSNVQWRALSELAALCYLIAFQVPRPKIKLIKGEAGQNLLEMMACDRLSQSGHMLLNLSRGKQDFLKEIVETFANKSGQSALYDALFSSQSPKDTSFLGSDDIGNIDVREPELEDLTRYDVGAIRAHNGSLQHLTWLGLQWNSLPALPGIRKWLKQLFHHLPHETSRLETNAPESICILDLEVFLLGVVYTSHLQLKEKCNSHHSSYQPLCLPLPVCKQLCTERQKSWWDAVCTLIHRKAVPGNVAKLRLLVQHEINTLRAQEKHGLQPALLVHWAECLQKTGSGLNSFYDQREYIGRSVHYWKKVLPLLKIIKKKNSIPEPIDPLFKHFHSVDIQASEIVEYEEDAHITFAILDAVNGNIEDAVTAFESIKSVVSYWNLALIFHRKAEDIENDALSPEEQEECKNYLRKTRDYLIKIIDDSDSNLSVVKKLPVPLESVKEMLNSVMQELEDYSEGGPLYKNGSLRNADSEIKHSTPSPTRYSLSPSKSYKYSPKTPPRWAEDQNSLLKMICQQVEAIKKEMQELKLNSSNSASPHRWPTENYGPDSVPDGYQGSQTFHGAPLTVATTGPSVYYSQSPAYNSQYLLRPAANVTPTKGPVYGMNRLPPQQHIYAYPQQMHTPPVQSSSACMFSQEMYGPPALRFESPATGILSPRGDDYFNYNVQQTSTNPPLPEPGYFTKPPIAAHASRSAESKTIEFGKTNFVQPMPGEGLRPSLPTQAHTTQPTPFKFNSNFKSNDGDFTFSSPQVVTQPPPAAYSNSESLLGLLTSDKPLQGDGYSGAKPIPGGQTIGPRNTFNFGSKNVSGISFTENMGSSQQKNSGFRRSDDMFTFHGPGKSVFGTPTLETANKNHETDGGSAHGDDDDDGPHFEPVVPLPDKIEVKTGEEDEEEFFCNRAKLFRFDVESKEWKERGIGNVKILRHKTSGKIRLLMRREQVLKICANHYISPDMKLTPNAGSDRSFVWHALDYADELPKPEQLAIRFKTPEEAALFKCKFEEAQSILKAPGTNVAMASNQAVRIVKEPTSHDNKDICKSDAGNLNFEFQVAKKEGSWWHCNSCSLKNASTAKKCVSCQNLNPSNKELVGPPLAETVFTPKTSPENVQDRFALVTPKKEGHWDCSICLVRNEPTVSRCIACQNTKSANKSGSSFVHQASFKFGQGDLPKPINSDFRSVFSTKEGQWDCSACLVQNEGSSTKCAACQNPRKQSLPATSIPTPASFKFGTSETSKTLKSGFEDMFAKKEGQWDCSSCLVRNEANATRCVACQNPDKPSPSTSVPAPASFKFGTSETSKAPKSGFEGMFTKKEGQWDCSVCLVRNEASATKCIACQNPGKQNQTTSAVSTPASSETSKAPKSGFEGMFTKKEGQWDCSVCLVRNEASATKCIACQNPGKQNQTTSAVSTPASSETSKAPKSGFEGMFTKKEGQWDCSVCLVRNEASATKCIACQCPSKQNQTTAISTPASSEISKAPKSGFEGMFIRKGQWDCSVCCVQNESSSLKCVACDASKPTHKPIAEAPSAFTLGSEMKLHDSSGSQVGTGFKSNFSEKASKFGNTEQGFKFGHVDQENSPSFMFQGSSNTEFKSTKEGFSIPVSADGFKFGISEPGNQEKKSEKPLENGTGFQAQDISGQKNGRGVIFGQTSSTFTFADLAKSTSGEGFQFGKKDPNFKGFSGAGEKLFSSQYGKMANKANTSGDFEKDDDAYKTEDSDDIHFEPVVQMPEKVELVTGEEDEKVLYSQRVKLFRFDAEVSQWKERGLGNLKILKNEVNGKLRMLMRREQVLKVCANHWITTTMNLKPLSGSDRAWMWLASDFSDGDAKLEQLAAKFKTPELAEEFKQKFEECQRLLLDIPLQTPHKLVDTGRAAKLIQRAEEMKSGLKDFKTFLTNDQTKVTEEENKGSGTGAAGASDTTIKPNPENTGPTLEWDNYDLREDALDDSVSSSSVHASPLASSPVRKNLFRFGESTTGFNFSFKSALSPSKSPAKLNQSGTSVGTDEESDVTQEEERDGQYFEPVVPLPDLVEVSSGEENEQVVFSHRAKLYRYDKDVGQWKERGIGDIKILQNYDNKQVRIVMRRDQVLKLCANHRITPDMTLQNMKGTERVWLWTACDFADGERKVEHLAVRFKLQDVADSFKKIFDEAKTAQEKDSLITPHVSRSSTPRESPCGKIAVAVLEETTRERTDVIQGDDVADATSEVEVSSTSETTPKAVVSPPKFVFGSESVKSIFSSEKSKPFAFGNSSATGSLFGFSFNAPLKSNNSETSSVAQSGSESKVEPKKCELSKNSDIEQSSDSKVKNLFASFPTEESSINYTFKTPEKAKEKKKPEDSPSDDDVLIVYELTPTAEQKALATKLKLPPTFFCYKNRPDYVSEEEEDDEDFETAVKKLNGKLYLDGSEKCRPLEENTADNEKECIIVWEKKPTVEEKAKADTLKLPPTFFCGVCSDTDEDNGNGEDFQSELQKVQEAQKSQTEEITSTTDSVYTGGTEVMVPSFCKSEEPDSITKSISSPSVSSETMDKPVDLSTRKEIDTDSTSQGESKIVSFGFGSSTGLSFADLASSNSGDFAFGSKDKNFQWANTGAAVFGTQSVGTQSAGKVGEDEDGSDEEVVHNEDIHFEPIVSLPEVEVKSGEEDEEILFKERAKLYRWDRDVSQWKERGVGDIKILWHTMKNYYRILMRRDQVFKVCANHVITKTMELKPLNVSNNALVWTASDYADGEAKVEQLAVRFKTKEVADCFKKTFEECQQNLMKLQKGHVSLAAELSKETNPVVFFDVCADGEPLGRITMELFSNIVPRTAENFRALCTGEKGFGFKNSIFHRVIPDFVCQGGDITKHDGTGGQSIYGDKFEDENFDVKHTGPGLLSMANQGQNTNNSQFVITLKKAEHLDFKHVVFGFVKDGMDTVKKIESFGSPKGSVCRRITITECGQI
UniProt P49023, whole entry, looked up: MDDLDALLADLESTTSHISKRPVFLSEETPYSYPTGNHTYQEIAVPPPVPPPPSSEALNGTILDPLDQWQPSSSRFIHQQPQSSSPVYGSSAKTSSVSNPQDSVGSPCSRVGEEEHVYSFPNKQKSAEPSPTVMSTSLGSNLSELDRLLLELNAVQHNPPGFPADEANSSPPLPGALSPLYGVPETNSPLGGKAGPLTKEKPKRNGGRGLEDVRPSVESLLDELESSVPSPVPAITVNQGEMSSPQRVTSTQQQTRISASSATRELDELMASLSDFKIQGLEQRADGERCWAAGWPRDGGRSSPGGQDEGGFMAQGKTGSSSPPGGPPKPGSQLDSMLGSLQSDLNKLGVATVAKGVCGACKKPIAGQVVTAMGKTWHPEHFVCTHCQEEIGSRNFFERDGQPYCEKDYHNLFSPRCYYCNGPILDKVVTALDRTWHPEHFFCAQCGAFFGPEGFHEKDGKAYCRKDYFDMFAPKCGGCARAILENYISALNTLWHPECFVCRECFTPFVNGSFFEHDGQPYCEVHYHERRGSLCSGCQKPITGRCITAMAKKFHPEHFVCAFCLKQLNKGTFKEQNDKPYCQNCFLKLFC

Experiments:
Assay in all cases: log2 fold change, soluble protein after heating vs DMSO (PISA); higher = thermal stabilisation; K562 lysate, 10 uM; active = over 0.2 and 3.5 SD of the protein, either way, in both replicates (recomputed)
ibrutinib = compound: C=CC(=O)N1CCC[C@@H](n2nc(-c3ccc(Oc4ccccc4)cc3)c3c(N)ncnc32)C1 [ibrutinib]
Summary of the method: (§1)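 Following dounce homogenisation of K562 pellets in PBS pH 7.4 with 1 mM MgCl2, crude extract at 1 mg/mL protein was incubated for 30 min with 10 μM compound. Aliquots were then heated for 3 min over 48°C-58°C and pooled, NP-40 was added to 0.5% at 4°C, and soluble protein was recovered as the supernatant at 21,000xg for 90 min. Channel-sum-equalised TMTpro 16plex LC-MS/MS quantified this protein. Each value, from duplicates, is a log-two fold change in thermal stability relative to solvent controls.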

[1] = compound: CC(=O)c1cnc2ccc(-c3cc(Cl)c(O)c(Cl)c3)nc2c1N[C@H]1CC[C@H](CN(C)C)CC1
Summary of the method: as §1

ralimetinib = compound: CC(C)(C)Cn1c(N)nc2ccc(-c3[nH]c(C(C)(C)C)nc3-c3ccc(F)cc3)nc21 [ralimetinib]
Summary of the method: as §1

[2] = compound: CC(C)(O)CC(=O)NCCn1ccc2ncnc(Nc3ccc(Oc4cccc(C(F)(F)F)c4)c(Cl)c3)c21
Summary of the method: as §1

[3] = compound: CC(C)C1=C2N=C(C=C(N2N=C1)NCC3=CC=CC=C3)NCCCCCCN
Summary of the method: as §1

[4] = compound: CC1=C(C(CC(=O)N1)C2=CC=C(C=C2)C(F)(F)F)C(=O)NC3=C(C=C4C(=C3)C=NN4)F
Summary of the method: as §1

[5] = compound: CC1=C(C2=C(C=C1)C(=O)C3=CC=CC=C3N2CCCN)C
Summary of the method: as §1

[6] = compound: CC1=C(C=C(C=C1)NC(=O)C2=CC(=CC=C2)C(C)(C)C#N)NC3=CC4=C(C=C3)N=CN(C4=O)C
Summary of the method: as §1

[7] = compound: CC1=C(C=C(C=C1)NC(=O)C2=CC(=CC=C2)N(C)C)NC(=O)C3=CC=C(C=C3)O
Summary of the method: as §1

[8] = compound: CC1=CC=C(C=C1)SC2=C3C=C(SC3=CN=C2)C(=O)N
Summary of the method: as §1

vemurafenib = compound: CCCS(=O)(=O)Nc1ccc(F)c(C(=O)c2c[nH]c3ncc(-c4ccc(Cl)cc4)cc23)c1F [vemurafenib]
Summary of the method: as §1

[9] = compound: CCCS(=O)(=O)Nc1ccc(F)c(C(=O)c2c[nH]c3ncc(Cl)cc23)c1F
Summary of the method: as §1

barasertib = compound: CCN(CCCOc1ccc2c(Nc3cc(CC(=O)Nc4cccc(F)c4)[nH]n3)ncnc2c1)CCOP(=O)(O)O [barasertib]
Summary of the method: as §1

[10] = compound: CC[C@@H]1C(=O)N(C)c2cnc(Nc3ccc(C(=O)NC4CCN(C)CC4)cc3OC)nc2N1C1CCCC1
Summary of the method: as §1

volasertib = compound: CC[C@@H]1C(=O)N(C)c2cnc(Nc3ccc(C(=O)N[C@H]4CC[C@H](N5CCN(CC6CC6)CC5)CC4)cc3OC)nc2N1C(C)C [volasertib]
Summary of the method: as §1

[11] = compound: CCn1c(C(=O)N(C2CC2)C2CC2)cc2c3c(ncn3C)c(Nc3cc(C)n(C)n3)nc21
Summary of the method: as §1

[12] = compound: CCn1cc(-c2ccnc3[nH]c(-c4cccc(CN(C)C)c4)cc23)c(-c2ccc(NC(=O)N(C)C)cc2)n1
Summary of the method: as §1

[13] = compound: CN1CCC(CNc2ccc3ncc(-c4cccc(OC(F)(F)F)c4)n3n2)CC1
Summary of the method: as §1

saracatinib = compound: CN1CCN(CCOc2cc(OC3CCOCC3)c3c(Nc4c(Cl)ccc5c4OCO5)ncnc3c2)CC1 [saracatinib]
Summary of the method: as §1

sotrastaurin = compound: CN1CCN(c2nc(C3=C(c4c[nH]c5ccccc45)C(=O)NC3=O)c3ccccc3n2)CC1 [sotrastaurin]
Summary of the method: as §1

Target	log2 fold change (ibrutinib)	log2 fold change [1]	log2 fold change (ralimetinib)	log2 fold change [2]	log2 fold change [3]	log2 fold change [4]	log2 fold change [5]	log2 fold change [6]	log2 fold change [7]	log2 fold change [8]	log2 fold change (vemurafenib)	log2 fold change [9]	log2 fold change (barasertib)	log2 fold change [10]	log2 fold change (volasertib)	log2 fold change [11]	log2 fold change [12]	log2 fold change [13]	log2 fold change (saracatinib)	log2 fold change (sotrastaurin)
RAD18 (UniProt Q9NS91)	inactive: 0.027	inactive: 0.029	inactive: 0.047	inactive: -0.007	inactive: -0.026	inactive: -0.018	inactive: -0.022	inactive: -0.031	inactive: 0.002	inactive: 0.042	inactive: 0.003	inactive: -0.028	inactive: 0.032	inactive: 0.001	inactive: -0.014	inactive: 0.018	inactive: 0.012	inactive: -0.024	inactive: 0.011	inactive: 0.039
RAPGEF2, A0A2R8YGD3	inactive: -0.059	inactive: 0.007	inactive: 0.008	inactive: -0.037	inactive: 0.008	inactive: 0.054	inactive: -0.07	inactive: 0.025	inactive: -0.025	inactive: 0.023	inactive: 0	inactive: 0.013	inactive: 0.144	inactive: 0.093	inactive: -0.015	inactive: -0.029	inactive: 0.325	inactive: 0.05	inactive: 0.01	inactive: -0.003
R3HCC1 (UniProt Q9Y3T6)	inactive: 0.02	inactive: 0.058	inactive: 0.016	inactive: -0.028	inactive: -0.045	inactive: 0.022	inactive: -0.061	inactive: 0.017	inactive: -0.001	inactive: 0.025	inactive: 0.07	inactive: 0.036	inactive: 0.009	inactive: 0.044	inactive: -0.015	inactive: -0.022	inactive: -0.066	inactive: 0.082	inactive: 0.029	inactive: 0.021
RAB2A (UniProt P61019)	inactive: 0.022	inactive: 0.019	inactive: 0.024	inactive: 0.033	inactive: -0.02	inactive: 0.013	inactive: 0.051	inactive: -0.036	inactive: -0.015	inactive: -0.045	inactive: -0.127	inactive: 0.002	inactive: 0.022	inactive: -0.232	inactive: 0.02	inactive: 0.045	inactive: 0.051	inactive: 0.04	inactive: 0.021	inactive: 0.031
RABGAP1L isoform 5 (UniProt Q5R372)	inactive: 0.021	inactive: -0.069	inactive: -0.012	inactive: -0.109	inactive: -0.097	inactive: -0.021	inactive: -0.009	inactive: 0.023	inactive: 0.024	inactive: -0.033	inactive: 0.017	inactive: -0.027	inactive: 0.036	inactive: 0.058	inactive: 0.015	inactive: -0.074	inactive: 0.066	inactive: -0.073	inactive: 0.014	inactive: 0.078
RAB21 (UniProt Q9UL25)	inactive: 0.026	inactive: -0.004	inactive: 0.057	inactive: -0.02	inactive: -0.002	inactive: 0.019	inactive: 0.021	inactive: -0.023	inactive: -0.002	inactive: 0.015	inactive: -0.038	inactive: -0.005	inactive: 0.041	inactive: 0.005	inactive: -0.006	inactive: 0.008	active: 0.262	inactive: -0.06	inactive: 0.029	inactive: -0.021
RACK1 (UniProt P63244)	inactive: 0.003	inactive: 0.012	inactive: 0.004	inactive: 0.032	inactive: -0.002	inactive: -0.019	inactive: 0.011	inactive: -0.015	inactive: -0.006	inactive: 0.04	inactive: -0.041	inactive: 0	inactive: -0.012	inactive: -0.052	inactive: -0.064	inactive: -0.002	inactive: 0.042	inactive: -0.025	inactive: -0.014	inactive: -0.025
RAB3A (UniProt P20336)	inactive: -0.009	inactive: 0.073	inactive: 0.008	inactive: 0.014	inactive: -0.038	inactive: 0.077	inactive: -0.072	inactive: -0.017	inactive: -0.067	inactive: 0.179	inactive: -0.074	inactive: -0.095	inactive: 0.007	inactive: -0.052	inactive: -0.158	inactive: 0.033	inactive: 0	inactive: 0.014	inactive: 0.006	inactive: -0.035
RAB3IL1 (UniProt E9PK89)	inactive: 0.066	inactive: 0.045	inactive: -0.028	inactive: -0.08	inactive: -0.069	inactive: 0.052	inactive: 0.071	inactive: 0.025	inactive: 0.135	inactive: -0.031	inactive: -0.154	inactive: 0.031	inactive: -0.001	inactive: -0.079	inactive: 0.031	inactive: -0.054	inactive: 0.026	inactive: -0.047	inactive: -0.043	inactive: -0.013
RAB23 (UniProt Q9ULC3)	inactive: -0.022	inactive: 0.016	inactive: 0.004	inactive: -0.054	inactive: -0.019	inactive: 0.018	inactive: 0.065	inactive: -0.04	inactive: 0.091	inactive: -0.006	inactive: 0.026	inactive: 0.023	inactive: 0.002	inactive: -0.066	inactive: -0.064	inactive: -0.055	inactive: -0.076	inactive: 0.072	inactive: -0.025	inactive: 0.076
RABIF (UniProt P47224)	inactive: 0.009	inactive: -0.003	inactive: -0.011	inactive: -0.024	inactive: -0.037	inactive: -0.038	inactive: -0.013	inactive: -0.024	inactive: 0	inactive: 0.013	inactive: 0.02	inactive: -0.013	inactive: 0.043	inactive: 0.031	inactive: 0.004	inactive: 0.047	inactive: -0.072	inactive: -0.062	inactive: -0.022	inactive: -0.008
RAB7A (UniProt P51149)	inactive: -0.04	inactive: 0.012	inactive: -0.031	inactive: -0.052	inactive: -0.014	inactive: -0.009	inactive: -0.002	inactive: -0.018	inactive: 0.001	inactive: 0.004	inactive: -0.019	inactive: -0.013	inactive: -0.015	inactive: 0.033	inactive: -0.008	inactive: -0.002	inactive: -0.012	inactive: 0.06	inactive: -0.011	inactive: 0.001
RANBP2 (UniProt P49792)	inactive: 0.001	inactive: -0.01	inactive: 0.018	inactive: -0.009	inactive: -0.01	inactive: 0.011	inactive: 0.007	inactive: 0	inactive: 0.018	inactive: -0.001	inactive: -0.031	inactive: 0.015	inactive: 0.043	inactive: -0.022	inactive: -0.048	inactive: 0.026	inactive: -0.019	inactive: -0.031	inactive: 0.018	inactive: 0.015
QTRT1 (UniProt Q9BXR0)	inactive: 0.057	inactive: -0.003	inactive: 0.015	inactive: -0.029	inactive: 0.034	inactive: 0.006	inactive: 0.018	inactive: -0.009	inactive: 0.001	inactive: -0.018	inactive: 0.029	inactive: 0.067	inactive: -0.028	inactive: 0.035	inactive: -0.012	inactive: -0.048	inactive: -0.095	inactive: 0.061	inactive: 0.025	inactive: -0.005
RAP2B (UniProt P61225)	inactive: 0.02	inactive: -0.006	inactive: -0.008	inactive: 0.042	inactive: -0.017	inactive: 0.03	inactive: -0.03	inactive: 0.015	inactive: -0.004	inactive: -0.029	inactive: 0.014	inactive: 0.032	inactive: 0.104	inactive: 0.031	inactive: 0.023	inactive: 0.069	inactive: -0.079	inactive: -0.049	inactive: 0.088	inactive: -0.012
PXN isoform 3 (UniProt P49023)	inactive: 0.044	inactive: -0.001	inactive: 0.013	inactive: 0.002	inactive: -0.011	inactive: -0.003	inactive: -0.008	inactive: 0.094	inactive: -0.006	inactive: -0.048	inactive: -0.008	inactive: 0.061	inactive: -0.071	inactive: 0.02	inactive: 0.023	inactive: 0.008	inactive: 0.001	inactive: 0.027	inactive: 0.033	inactive: -0.046

Looked up above:
Entry of RABIF (UniProt P47224) under log2 fold change [11]: inactive: 0.047
Entry of RACK1 (UniProt P63244) under log2 fold change [10]: inactive: -0.052
